Experimental data reported in PubChem BioAssay AID2685 (National Center for Advancing Translational Sciences (NCATS), 2010).
This is one part of the list. Further columns of the screen follow, without active or inactive calls. Most of these compounds were active or inconclusive in the main read-out, so they are no random draw. The note in brackets gives the kind of curve behind each potency; many fits are weak.

Assay: qHTS Assay for Lipid Storage Modulators in Drosophila S3 Cells;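 as to cell number change: cells counted by Cell Tracker Red CMTPX staining in the red channel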
Conditions: BODIPY lipid droplet fluorescence, 18-24 h; for cell number change: measured here: cell count max response, cells fed with added oleic acid
Outline: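 Drosophila S3 cells got compounds at several concentrations plus oleic acid (400 uM solution). Laser-scanning cytometry with 488 nm excitation read lipid droplets at 500-530 nm and cells at 575-640 nm. Percent activity was relative to 20 uM Triacsin C.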

[1] = measured here: lipid fluorescence (Fed channel) AC50, cells fed with added oleic acid
[2] = measured here: cell number channel AC50, cells fed with added oleic acid

| Structure (SMILES) | cell number change | AC50 [1] | AC50 [2] |
| --- | --- | --- | --- |
| COc1cc(OC)cc(C(=O)N2CCN(Cc3ccc4c(c3)OCO4)CC2)c1 | 12.8% | 6.51 µM [rising, single point] | – |
| COc1ccc(C2C(C(=O)c3ccco3)=C(O)C(=O)N2Cc2cccnc2)cc1OC (centres undefined) | -9.51% | – | 2.59 µM [rising, single point] |
| NS(=O)(=O)Cc1noc2ccccc12 | 11.8% | – | 3.66 µM [falling, single point] |
| CCCc1nc(SCC(=O)Nc2nnc(CC)s2)c2c(C)c(C)sc2n1 | 2.01% | – | – |
| CC(=O)c1cccc(NC(=O)/C(=C\c2cccnc2)NC(=O)c2ccco2)c1 | 22.1% | 18.4 µM [rising, single point] | – |
| COc1ccccc1NC(=O)NNC(=O)c1cc2ccccc2cc1O | 36.2% | – | – |
| COC(=O)c1cc(NS(=O)(=O)c2cccs2)cc(NS(=O)(=O)c2cccs2)c1 | -14% | – | – |
| CN(Cc1ccccc1F)C(=O)COc1ccc(C(=O)c2ccccc2)cc1 | 7.89% | 3.55 µM [rising, single point] | – |
| C=CCn1c(SCC(=O)NC2CCS(=O)(=O)C2)nc2scc(C3CC3)c2c1=O (centres undefined) | -7.18% | – | – |
| O=C1COc2ccc(S(=O)(=O)CCC(=O)NC3CCCCC3)cc2N1 | 22.4% | – | – |
| Cc1cc(C)n(-c2cc(-n3nc(C)cc3C)ncn2)n1 | -1.01% | 6.51 µM [rising, single point] | – |
| NNc1nc2c(-c3ccc(F)cc3)nnn2c2ccccc12 | 1.56% | – | 6.51 µM [rising, single point] |
| CCN(CC)S(=O)(=O)c1cccc(NC(=O)COC(=O)C2=COCCO2)c1 | -8.03% | 0.082 µM [falling, full curve, poor fit] | – |
| COC(=O)c1cc(S(=O)(=O)Nc2c(C)cccc2C)cn1C | 16.2% | 0.731 µM [rising, full curve, poor fit] | – |
| CCCOc1ccc(C(=O)NNC(=S)NC(=O)CC)cc1 | -12.7% | 29.1 µM [falling, single point] | – |
| CC(=O)c1ccc(Nc2ccc(-c3ccccc3C)nn2)cc1 | 4.17% | 16.4 µM [falling, single point] | – |
| CSCC[C@H](NC(=O)N1CCn2c1nc1ccccc12)C(=O)N[C@@H](C(=O)O)c1ccccc1 | 24.3% | 29.1 µM [rising, single point] | – |
| COc1ccc(OCC(=O)N2CCc3c([nH]c4ccccc34)C2c2ccccn2)cc1 (centres undefined) | -9.27% | – | – |
| O=C(c1ccc(NS(=O)(=O)c2ccc3c(c2)OCCO3)cc1)N1CCCCC1 | -19.5% | – | – |
| CCOC(=O)/C(N=Nc1c(Br)cc(Br)cc1Br)=C(\C)O | 31.6% | – | 0.103 µM [rising, full curve] |
| CC(=O)Nc1ccc(NC(=O)c2ccco2)cc1 | -20.4% | – | 3.26 µM [falling, single point] |

| Structure (SMILES) | cell number change | AC50 [1] | AC50 [2] |
| --- | --- | --- | --- |
| CCO[C@H]1OC(C(=O)NCc2nc3ccccc3[nH]2)=C[C@@H](C2CC2)[C@@H]1CCCO | -13.9% | 2.06 µM [rising, single point] | – |
| O=C(CSc1nnc(-c2ccccc2Cl)o1)N1CCCC1 | -0.794% | 29.1 µM [rising, single point] | – |
| Cn1ncc(Br)c1NC(=O)Nc1ccccc1 | -13.3% | 18.4 µM [rising, single point] | – |
| CSCCC(NC(=O)C1CCC(C)CC1)C(=O)NCc1ccco1 (centres undefined) | 0.486% | 2.31 µM [falling, partial curve, poor fit] | 2.06 µM [falling, partial curve] |
| COc1cccc(NC(=O)CSc2ccccn2)c1 | 14.9% | – | 0.82 µM [rising, full curve, poor fit] |
| O=C(O)c1cn(-c2ccc(F)c(F)c2)c2c(F)c(F)c(F)c(F)c2c1=O | -0.414% | 7.31 µM [falling, partial curve] | – |
| CCCCCNCC(=O)Nc1cccc(C(=O)Nc2cccc(C(F)(F)F)c2)c1 | -60.9% | 23.1 µM [falling, single point] | 29.1 µM [falling, single point] |
| CC(C(=O)N1CCc2ccccc2C1)N(c1ccccc1)S(C)(=O)=O (centres undefined) | – | 1.84 µM [falling, partial curve] | – |
| C=CCNC(=S)NNC(=O)c1ccco1 | – | 0.0116 µM [rising, full curve, poor fit] | – |
| CC(C)(C)NC(=O)C(c1ccc(F)cc1)N(Cc1cccs1)C(=O)c1ccc(CN2CCOCC2)o1 (centres undefined) | -2.63% | 6.51 µM [falling, single point] | – |
| CCc1nnc(NS(=O)(=O)c2ccc(NC(=S)NC(=O)/C=C/c3cccs3)cc2)s1 | 15.1% | 0.00411 µM [rising, full curve, poor fit] | – |
| CCOC(=O)c1nn(-c2ccccc2)c(=O)cc1OCC(=O)Nc1ccccc1OCC | – | 0.731 µM [rising, full curve] | – |
| c1ccc(CCNc2ccnc3cc4ccccc4cc23)cc1 | -86.2% | 16.4 µM [falling, partial curve] | 20.6 µM [falling, partial curve] |
| CCOC(=O)N1CCN(c2c(NCCc3ccc(OCC)c(OCC)c3)c(=O)c2=O)CC1 | – | 6.51 µM [rising, single point] | 5.8 µM [rising, single point] |
| CCc1ccccc1NC(=O)N1CCc2ccccc2C1 | 15.7% | 4.61 µM [rising, partial curve, poor fit] | – |
| O=C(N=C1SC2CS(=O)(=O)CC2N1c1ccc(Cl)cc1Cl)C1CCCO1 (centres undefined) | -11.3% | 0.651 µM [falling, full curve] | – |
| COC(=O)CCc1c(C)c(C#N)c2nc3ccccc3n2c1N1CCCC1 | 115% | 2.31 µM [rising, partial curve] | 3.26 µM [rising, full curve] |
| O=C(O)c1ccc2c(c1)C(=O)N(Cc1ccccc1)C2=O | 24.4% | 0.13 µM [falling, full curve, poor fit] | – |
| O=C(c1cc(COc2cccc3cnccc23)on1)N1CCC(c2ccccc2Cl)C1 (centres undefined) | -35.3% | 29.1 µM [falling, single point] | 18.4 µM [falling, partial curve] |
| Cc1cccc(C(=O)NC2C(=O)NNC2c2ccc(Cl)cc2)c1 (centres undefined) | 10% | 0.651 µM [falling, full curve] | 0.651 µM [falling, full curve] |
| COc1ccc(/C=C(\C#N)C(=O)NCCc2ccccc2)cc1OCc1ccccc1 | -83.3% | – | 2.06 µM [falling, partial curve] |

| Structure (SMILES) | cell number change | AC50 [1] | AC50 [2] |
| --- | --- | --- | --- |
| O=c1cc(-c2ccccc2)cc(-c2ccccc2)n1CCCO | 21.8% | 13 µM [rising, partial curve, poor fit] | – |
| CCC(Sc1nc(C)cc(=O)[nH]1)C(=O)Nc1sc2c(c1C#N)CCCC2 (centres undefined) | -19.8% | – | – |
| C=CCSc1nc2sc(-c3ccccc3)cc2c(=O)n1N | -26.3% | 29.1 µM [falling, single point] | – |
| COc1ccc(CCCc2nnc(SCC(=O)Nc3ccc(C)c(C)c3)o2)cc1 | 72.6% | – | 13 µM [rising, partial curve] |
| COc1cc(/C=C(\C#N)c2ccccn2)ccc1OCC(=O)Nc1ccc(Br)cc1 | -20.4% | – | – |
| COc1ccc([N+](=O)[O-])cc1NS(=O)(=O)c1cccc(C(=O)O)c1 | -43.3% | 6.51 µM [falling, partial curve] | 8.2 µM [falling, partial curve, poor fit] |
| COC(=O)C1CCN(C(=O)c2cc3ccccc3oc2=O)CC1 | -10.5% | – | – |
| COc1ccc(C(=O)c2ccc(Br)cc2)c2ccccc12 | -18.5% | 0.00461 µM [falling, full curve, poor fit] | – |
| Cc1cc(C(=O)NCc2ccco2)c2ccccc2n1 | 63.3% | – | 23.1 µM [rising, partial curve, poor fit] |
| NC(=O)c1ccsc1NC(=O)COc1ccccc1 | 232% | 20.6 µM [rising, partial curve] | – |
| Cc1cc(=O)[nH]c2n[nH]c(-c3ccccc3)c12 | 3.68% | 0.651 µM [falling, single point] | – |
| CCN(CC)c1ccc(N2C(=O)c3ccccc3C2=O)cc1 | 17.6% | 1.84 µM [rising, partial curve, poor fit] | – |
| Cc1c(C(=O)NCCN2CCOCC2)oc2ccc(Br)cc12 | 30.9% | 20.6 µM [rising, partial curve, poor fit] | 16.4 µM [rising, single point] |
| CCN(CC(=O)Nc1ccc2c(c1)OCCO2)C(=O)CN1C(=O)NC(C)(c2ccc(C)cc2)C1=O (centres undefined) | 4.26% | – | – |
| CC(Sc1nncn1C)C(=O)Nc1ccc(N2CCCCC2)cc1 (centres undefined) | 2.53% | 16.4 µM [rising, single point] | – |
| CCCNC(=O)c1onc(CSc2nc3ccccc3[nH]2)c1C(=O)NCCC | -16.2% | 20.6 µM [falling, single point] | – |
| C/C(=N\NC(=O)C1COc2ccccc2O1)c1ccc(Cl)s1 (centres undefined) | 6.47% | 29.1 µM [rising, single point] | 6.51 µM [rising, single point] |
| CNC(=O)c1ccccc1S(=O)c1ccccc1COC(C)=O (centres undefined) | 52% | 14.6 µM [rising, partial curve] | 16.4 µM [rising, single point] |
| CC12C(=O)N(Cc3ccccc3)C(=O)C1C1C=CC2C1 (centres undefined) | 2.37% | – | – |
| O=C(NCc1ccc(F)cc1Cl)C1CC(=O)N(C2CCCCCCC2)C1 (centres undefined) | 11.2% | 29.1 µM [rising, single point] | – |

Whole records, looked up by structure.
`COc1ccc(C(=O)c2ccc(Br)cc2)c2ccccc12` as listed: cell number change: -18.5%; AC50 [1]: 0.00461 µM [falling, full curve, poor fit]
`Cc1cc(=O)[nH]c2n[nH]c(-c3ccccc3)c12` as listed: cell number change: 3.68%; AC50 [1]: 0.651 µM [falling, single point]
